The record followed here is PubChem BioAssay AID1487 (National Center for Advancing Translational Sciences (NCATS), 2009).

A short description of this test: qHTS Assay for Modulators of Lamin A Splicing. The settings on record: HeLa LMNA splicing GFP/RFP minigene ratio, 48 h. In outline: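 S3 HeLa cells stably expressing lamin A-EGFP splicing minigene plus DsRed2, 600 cells/well, 48 h compound exposure at 37C. Laser-scanning cytometry; analysed as GFP (500-530 nm)/RFP (575-640 nm) total intensity ratio; 0.5% DMSO vehicle.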

Setting [1] is: measured here: GFP splicing reporter channel.
[2] abbreviates: measured here: RFP viability control channel.

Some of the results follow. Further columns of the screen follow, without active or inactive calls. Most of these compounds were active or inconclusive in the main read-out, so they are no random draw. Words in brackets tell the shape of the fitted curve; partial curves, single points and poor fits give uncertain potencies.

In the case of `CS(=O)(=O)Nc1cccc(-c2nc(Nc3ccc(F)cc3)c3ccccc3n2)c1`, the AC50 (commonly the midpoint of the concentration-response curve, whichever way the signal moves) is 25.1 µM [falling, single point] under setting [1] and 35.5 µM [falling, single point] under setting [2].
As for `COc1cc(C(=O)N2C(=O)c3cccc(N)c3C2=O)cc(OC)c1OC`, the AC50 is 0.00355 µM [rising, full curve, poor fit] under setting [1] and 0.00316 µM [rising, full curve, poor fit] under setting [2].
Take `COc1ccc(NC(=O)c2c(NCc3cccs3)sc3c2CCCC3)cc1`: the AC50 under setting [2] is 22.4 µM [rising, single point].
On to `O=C(CN1C(=O)CCC1=O)NCC12CC3CC(CC(C3)C1)C2`, for which the AC50 reads like this: under setting [1], 6.31 µM [rising, full curve, poor fit]; under setting [2], 6.31 µM [rising, full curve, poor fit].
Regarding `COc1ccccc1-c1nnc(NC(=O)C(C)SC2=NCCS2)s1` (stereo not given), the AC50 under setting [2] was 11.2 µM [rising, partial curve].
Consider `CC1CCC(NC(=O)c2ccc(/C=C3\Oc4ccccc4N(C)C3=O)cc2)CC1` (stereo not given), for which, under setting [1], the AC50 was 2.82 µM [falling, full curve].
Consider `Cc1cccc(NS(=O)(=O)c2cc(C(=O)OCC(=O)Nc3cc(C)on3)ccc2C)c1`, for which, under setting [2], the AC50 is 7.94 µM [rising, partial curve].
For the compound `O=C(Nc1ccc(S(=O)(=O)NC2CCCCC2)cc1)c1ccco1`, under setting [2], the concentration at half-maximal activity (AC50) is 4.47 µM [rising, partial curve, poor fit].
Same read-out and setting: the figure for `Cc1ccc(-n2ncc3c(N(CC(C)C)CC(C)C)ncnc32)c(C)c1` is 35.5 µM [rising, single point].
Turning to `CSc1ccc(/C=C/c2cc(=O)c3ccccc3[nH]2)cc1`, the AC50 is 4.47 µM [rising, full curve] under setting [1] and 10 µM [rising, partial curve] under setting [2].
For `CC(=O)N1CCCc2cc(S(=O)(=O)NCc3ccc(C)cc3)ccc21`, under setting [2], the AC50 is 15.8 µM [rising, partial curve, poor fit].
As for `CN(Cc1cc(=O)n2ccsc2n1)Cc1nc2ccccc2c(=O)[nH]1`, the AC50 by setting is: under setting [1], 0.0355 µM [falling, full curve, poor fit]; under setting [2], 0.0708 µM [falling, full curve, poor fit].
Turning to `CC1=NN(C(=O)COc2ccc(C)c(C)c2)C(O)(c2ccc(Cl)cc2)C1` (stereo not given), the AC50 runs as follows: under setting [1], 12.6 µM [rising, partial curve]; under setting [2], 22.4 µM [rising, single point].
Turning to `Cc1ccc(NC(=O)c2c(-c3c(F)cccc3Cl)noc2C)cc1F`, the AC50 runs as follows: under setting [1], 7.08 µM [rising, partial curve]; under setting [2], 11.2 µM [rising, single point].
`Cc1cc2nc(SCCOC(=O)Nc3ccccc3)nc(C)c2cc1C`: the AC50 is, setting by setting: under setting [1], 15.8 µM [rising, partial curve, poor fit]; under setting [2], 14.1 µM [rising, single point].
For the compound `CC(CNC(=O)C1CCN(S(=O)(=O)c2ccc3c(ccn3C)c2)CC1)c1ccccc1` (stereo not given), the AC50 under setting [1] was 14.1 µM [falling, partial curve, poor fit].
For the compound `O=C(Nc1ncc(Cc2ccccc2Cl)s1)C1CCCO1` (stereo not given), the AC50 under setting [2] is 7.94 µM [rising, partial curve].
In the case of `O=c1oc2ccccc2c(NC(c2ccccc2)c2ccccc2)c1[N+](=O)[O-]`, the AC50 is, setting by setting: under setting [1], 31.6 µM [rising, single point]; under setting [2], 31.6 µM [rising, single point].
`COC(=O)C(C(=O)OC)C(C[N+](=O)[O-])c1ccc(O)c(OC)c1` (stereo not given): under setting [2], the AC50 was 10 µM [rising, partial curve].
On the same count and under the same terms, in the case of `C=CCNC(=O)NC(=O)CSc1nc2cc([N+](=O)[O-])ccc2n1-c1cccc(C(F)(F)F)c1` it was 0.501 µM [rising, partial curve, poor fit].
For `O=C(CN1C(=O)/C(=C/c2cccc(Br)c2)SC1=S)Nc1cccnc1`, the AC50 under setting [1] is 8.91 µM [falling, partial curve, poor fit].
Same read-out and setting: the figure for `Nc1nc(CSc2ccc(Cl)cc2)nc(N2CCCCC2)n1` is 4.47 µM [rising, partial curve, poor fit].
As to `CCCCCCCNC(=O)C1CC(=O)N(C)C(=Nc2ccc(OC)cc2)S1` (stereo not given), the AC50 was 12.6 µM [rising, partial curve] under setting [1] and 20 µM [rising, partial curve] under setting [2].
For the compound `CC(=O)c1cccc(NC(=S)NCCC2=CCCCC2)c1`, the AC50 runs as follows: under setting [1], 28.2 µM [rising, partial curve]; under setting [2], 35.5 µM [rising, partial curve].
As for `O=C(Cn1c(SCc2ccccc2F)nc2cccnc21)Nc1ccc(F)c(Cl)c1`, the AC50 under setting [1] was 39.8 µM [falling, partial curve, poor fit].
Same read-out and setting: the figure for `Cc1ccc(C(=O)N2CCc3cc(CNC(=O)CCc4ccccc4)ccc32)cc1` is 10 µM [falling, partial curve].
On to `CCC(=O)[C@@]1(C)[C@H](C)C[C@@H]2[C@@H]3CCC4=CC(=O)C=C[C@@]4(C)[C@H]3[C@H](O)C[C@]21C`, for which the AC50 is, setting by setting: under setting [1], 12.6 µM [falling, single point]; under setting [2], 8.91 µM [falling, partial curve, poor fit].
In the case of `O=C(NCc1cccnc1)/C(=C\c1ccc(-c2ccc(Br)cc2)o1)S(=O)(=O)c1ccccc1`, the AC50 under setting [1] was 35.5 µM [falling, single point].
Turning to `CCc1nc2ccc(C(=O)NCc3cccc(Br)c3)cc2nc1CC`, the AC50 runs as follows: under setting [1], 3.16 µM [falling, single point]; under setting [2], 1.26 µM [falling, partial curve, poor fit].
With `COc1ccc(OCCC(=O)OCC(=O)NCCC2=CCCCC2)cc1`, the AC50 under setting [1] was 0.794 µM [rising, full curve, poor fit].
As to `O=C(CN1CCN(c2ccccn2)CC1)N1c2ccccc2Sc2ccc(C(F)(F)F)cc21`, the AC50 under setting [2] was 12.6 µM [rising, partial curve].
On the same count and under the same terms, the figure for `NS(=O)(=O)c1ccc(CCNC(=O)C(=O)c2c[nH]c3ccccc23)cc1` is 0.1 µM [rising, full curve].
On the same count and under the same terms, in the case of `COCCCN(C(=S)Nc1cc(C)cc(C)c1)C(C)c1ccncc1` (stereo not given) it was 0.0282 µM [rising, full curve, poor fit]; in that of `O=[N+]([O-])c1cc(-c2nnc(Nc3ccccc3)c3ccccc23)ccc1N1CCOCC1`, 11.2 µM [rising, partial curve, poor fit].
Turning to `CC(C)(C)n1nnnc1C(c1cccs1)N(Cc1ccccc1)Cc1ccco1` (stereo not given), the AC50 under setting [1] is 15.8 µM [rising, single point] and the AC50 under setting [2] is 22.4 µM [rising, single point].
Take `COc1c(C)cc(Br)cc1C(=O)Nc1cccc(-c2nc3ncccc3o2)c1`: the AC50 was 25.1 µM [rising, single point] under setting [1] and 17.8 µM [rising, single point] under setting [2].
In the case of `Cc1cccc(CSc2nc3sc(C)c(C)c3c(=O)n2Cc2ccco2)c1`, the AC50 by setting is: under setting [1], 3.98 µM [falling, single point]; under setting [2], 3.98 µM [falling, single point].
In the case of `O=C(c1cnc(N2CCCCC2)c2ccccc12)N1CCN(c2cccc(Cl)c2)CC1`, the AC50 is 35.5 µM [falling, single point] under setting [1] and 35.5 µM [falling, single point] under setting [2].
Regarding `COCCCNC(=O)c1nn(-c2ccc(C)cc2)c(=O)n(C)c1=O`, the AC50 under setting [1] is 14.1 µM [rising, partial curve, poor fit].
As for `CC1CN(C(=O)Cc2ccc(-c3ccccc3)cc2)CC(C)O1` (stereo not given), under setting [1], the AC50 was 14.1 µM [rising, single point].
On the same count and under the same terms, in the case of `COc1ccc(OC)c(S(=O)(=O)N2CCC(C(=O)NC(C)c3ccccc3)CC2)c1` (stereo not given) it was 35.5 µM [rising, single point].
`CC(C)(C)CC(C)(C)NC(=S)Nc1ccc(S(=O)(=O)N2CCOCC2)cc1`: the AC50 under setting [2] was 35.5 µM [rising, single point].
Consider `COCCn1c(=O)c(-c2cccs2)nc2cnc(N3CCNCC3)nc21`, for which the AC50 under setting [1] was 14.1 µM [falling, partial curve, poor fit].
Consider `C=CCn1c(O)c(N=NC(=S)Nc2ccccc2F)c2cc(S(=O)(=O)N3CCOCC3)ccc21`, for which, under setting [2], the AC50 is 20 µM [falling, partial curve].
As for `Cc1cccn2c(NCc3ccc4c(c3)OCO4)c(-c3ccc(O)cc3)nc12`, the AC50 under setting [1] was 25.1 µM [falling, partial curve, poor fit].
For the compound `CCOc1cc(/C=N/N=C(N)N)ccc1OCc1ccc(Cl)cc1`, the AC50 by setting is: under setting [1], 12.6 µM [rising, single point]; under setting [2], 17.8 µM [rising, single point].
Regarding `CCNC(=O)C1CCN(Cc2cc3ccccc3n2Cc2ccc(C)cc2)CC1`, the AC50 under setting [1] is 11.2 µM [falling, partial curve].
Regarding `COC(=O)N/N=C1\CCCc2ccccc21`, the AC50 under setting [1] was 35.5 µM [rising, single point].
As for `CCC(C)c1ccc(O)c(NC(=O)c2ncn[nH]2)c1` (stereo not given), the AC50 is 35.5 µM [rising, single point] under setting [1] and 31.6 µM [rising, single point] under setting [2].
Take `COCCN(C(=O)CSc1ncc(C(F)(F)F)cc1Cl)c1c(N)n(Cc2ccccc2)c(=O)[nH]c1=O`: the AC50 under setting [1] is 3.16 µM [falling, full curve].
The same measure, in the same setting: in the case of `O=C(OCCN1CCOCC1)C1(c2ccccc2)CCCCC1` it was 35.5 µM [rising, single point].
`Cc1cc(/C=C(\C#N)C(=O)OCC#N)c(C)n1CC(C)C`: the AC50 reads like this: under setting [1], 14.1 µM [falling, partial curve]; under setting [2], 15.8 µM [falling, partial curve, poor fit].
For `CCOc1cc(CNCCO)cc(Br)c1OCc1ccc(Cl)cc1Cl`, the AC50 under setting [1] was 22.4 µM [falling, single point] and the AC50 under setting [2] was 22.4 µM [falling, partial curve].
As to `O=C(Nc1cccc(-c2cn3c(n2)SCC3)c1)c1ccc(Br)o1`, the AC50 under setting [2] is 0.355 µM [rising, partial curve, poor fit].
